Reference: PubChem BioAssay AID1259327 (Drosophila RNAi Screening Center, 2017)
Test: 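Data from controls in screens of zinc and manganese toxicity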. System: Drosophila S2R+ cells. Reagent: long dsRNA against Drosophila genes. Duration: 5 days (water added on day 4, read one day later). Challenge: water added as vehicle, no metal, one day before read-out. Read-out: 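Luciferase ATP signal per well, normalised to plate mean, duplicate average converted to z-score across plates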. Scale: ATP z-score: higher = more total ATP than typical wells; ATP luminescence: higher = more total ATP. Call rule: 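Called active when the ATP z-score exceeds 1.5 or falls below -1.5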. Calls: active = hit: ATP up or down; inactive = no clear ATP change.
Shown is a random part of about 3,100 reagents tested. 378 of them (12%) count as active. 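Hits include both directions; z-score sign shows ATP rise or fall; raw luminescence values are not plate-normalised.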 The numbers tell different reagents against one gene apart. Names joined by + are all predicted targets of the reagent. No sequences are given here. Not stated in the record: the amount of reagent.

With SdhCL (GeneID 41324) #1, what was measured?
ATP z-score, duplicate mean: -0.63; ATP luminescence, replicate 1 (RLU): 2.80e5; ATP luminescence, replicate 2 (RLU): 6.71e5; Outcome: inactive

For SdhCL (GeneID 41324) #2, what does the deposit list?
ATP z-score, duplicate mean: -0.0841; ATP luminescence, replicate 1 (RLU): 4.48e5; ATP luminescence, replicate 2 (RLU): 4.71e5; Outcome: inactive

For CG15211 (GeneID 32006) #1, how do the results read?
ATP z-score, duplicate mean: -1.51; ATP luminescence, replicate 1 (RLU): 4.25e5; ATP luminescence, replicate 2 (RLU): 7.25e5; Outcome: active

Which result is listed for CG15211 (GeneID 32006) #2?
ATP z-score, duplicate mean: 0.663; ATP luminescence, replicate 1 (RLU): 5.23e5; ATP luminescence, replicate 2 (RLU): 5.28e5; Outcome: inactive

What is on record for Ptr (GeneID 35546) #1?
ATP z-score, duplicate mean: 0.107; ATP luminescence, replicate 1 (RLU): 6.63e5; ATP luminescence, replicate 2 (RLU): 5.96e5; Outcome: inactive

What did the screen give for Ptr (GeneID 35546) #2?
ATP z-score, duplicate mean: 0.536; ATP luminescence, replicate 1 (RLU): 5.38e5; ATP luminescence, replicate 2 (RLU): 7.13e5; Outcome: inactive

With Gr63a (GeneID 38453), what was measured?
ATP z-score, duplicate mean: -0.27; ATP luminescence, replicate 1 (RLU): 8.67e5; ATP luminescence, replicate 2 (RLU): 8.54e5; Outcome: inactive

With CG17821 (GeneID 37159) #1, what was measured?
ATP z-score, duplicate mean: 0.588; ATP luminescence, replicate 1 (RLU): 6.49e5; ATP luminescence, replicate 2 (RLU): 6.96e5; Outcome: inactive

For CG17821 (GeneID 37159) #2, how do the results read?
ATP z-score, duplicate mean: -3.36; ATP luminescence, replicate 1 (RLU): 2.84e5; ATP luminescence, replicate 2 (RLU): 3.13e5; Outcome: active

What is on record for CG10481 (GeneID 35273) #1?
ATP z-score, duplicate mean: -0.207; ATP luminescence, replicate 1 (RLU): 7.15e5; ATP luminescence, replicate 2 (RLU): 6.93e5; Outcome: inactive

What did the screen give for CG10481 (GeneID 35273) #2?
ATP z-score, duplicate mean: -1.12; ATP luminescence, replicate 1 (RLU): 4.14e5; ATP luminescence, replicate 2 (RLU): 3.45e5; Outcome: inactive

Sorted by “ATP z-score, duplicate mean” (high to low): 4 of the entries above.
CG17821 (GeneID 37159) #1 | ATP z-score, duplicate mean: 0.588; ATP luminescence, replicate 1 (RLU): 6.49e5; ATP luminescence, replicate 2 (RLU): 6.96e5; Outcome: inactive
Ptr (GeneID 35546) #2 | ATP z-score, duplicate mean: 0.536; ATP luminescence, replicate 1 (RLU): 5.38e5; ATP luminescence, replicate 2 (RLU): 7.13e5; Outcome: inactive
Gr63a (GeneID 38453) | ATP z-score, duplicate mean: -0.27; ATP luminescence, replicate 1 (RLU): 8.67e5; ATP luminescence, replicate 2 (RLU): 8.54e5; Outcome: inactive
CG17821 (GeneID 37159) #2 | ATP z-score, duplicate mean: -3.36; ATP luminescence, replicate 1 (RLU): 2.84e5; ATP luminescence, replicate 2 (RLU): 3.13e5; Outcome: active

More reagents:
For CG11069 (GeneID 42976), how do the results read?
ATP z-score, duplicate mean: 0.413; ATP luminescence, replicate 1 (RLU): 7.56e5; ATP luminescence, replicate 2 (RLU): 7.41e5; Outcome: inactive

What did the screen give for Nha1 (GeneID 33961) #1?
ATP z-score, duplicate mean: 0.805; ATP luminescence, replicate 1 (RLU): 5.12e5; ATP luminescence, replicate 2 (RLU): 5.60e5; Outcome: inactive

With Nha1 (GeneID 33961) #2, how do the results read?
ATP z-score, duplicate mean: -0.199; ATP luminescence, replicate 1 (RLU): 4.61e5; ATP luminescence, replicate 2 (RLU): 4.42e5; Outcome: inactive

What did the screen give for sei (GeneID 37843)?
ATP z-score, duplicate mean: -0.0232; ATP luminescence, replicate 1 (RLU): 7.08e5; ATP luminescence, replicate 2 (RLU): 9.21e5; Outcome: inactive

What is on record for Atf-2 + CG44247 #1?
ATP z-score, duplicate mean: 0.3; ATP luminescence, replicate 1 (RLU): 7.44e5; ATP luminescence, replicate 2 (RLU): 7.83e5; Outcome: inactive

Which result is listed for Atf-2 + CG44247 #2?
ATP z-score, duplicate mean: -0.65; ATP luminescence, replicate 1 (RLU): 6.15e5; ATP luminescence, replicate 2 (RLU): 6.99e5; Outcome: inactive

What did the screen give for l(2)k05819 (GeneID 33644) #1?
ATP z-score, duplicate mean: 1.95; ATP luminescence, replicate 1 (RLU): 6.38e5; ATP luminescence, replicate 2 (RLU): 5.91e5; Outcome: active

For l(2)k05819 (GeneID 33644) #2, what does the deposit list?
ATP z-score, duplicate mean: -0.925; ATP luminescence, replicate 1 (RLU): 3.81e5; ATP luminescence, replicate 2 (RLU): 4.25e5; Outcome: inactive

For CG11437 (GeneID 40470), what was measured?
ATP z-score, duplicate mean: 0.425; ATP luminescence, replicate 1 (RLU): 9.79e5; ATP luminescence, replicate 2 (RLU): 9.25e5; Outcome: inactive

Which result is listed for opm (GeneID 32435) #1?
ATP z-score, duplicate mean: 5.47; ATP luminescence, replicate 1 (RLU): 9.39e5; ATP luminescence, replicate 2 (RLU): 1.15e6; Outcome: active

For opm (GeneID 32435) #2, how do the results read?
ATP z-score, duplicate mean: -0.36; ATP luminescence, replicate 1 (RLU): 8.24e5; ATP luminescence, replicate 2 (RLU): 7.39e5; Outcome: inactive

What did the screen give for Vha16-1 (GeneID 44307)?
ATP z-score, duplicate mean: -1.66; ATP luminescence, replicate 1 (RLU): 4.62e5; ATP luminescence, replicate 2 (RLU): 4.76e5; Outcome: active

For CG5646 (GeneID 43311) #1, how do the results read?
ATP z-score, duplicate mean: 0.0128; ATP luminescence, replicate 1 (RLU): 6.62e5; ATP luminescence, replicate 2 (RLU): 7.51e5; Outcome: inactive

With CG5646 (GeneID 43311) #2, how do the results read?
ATP z-score, duplicate mean: -0.143; ATP luminescence, replicate 1 (RLU): 8.35e5; ATP luminescence, replicate 2 (RLU): 7.78e5; Outcome: inactive
